Measurements from patent publication US8318941B2, “Pyridone/hydroxypyridine 11-beta hydroxysteroid dehydrogenase type I inhibitors” (Bristol-Myers Squibb Company, priority 2006, dated 2012).

Sequences of proteins named here, by UniProt entry; tags and fusion partners are left off.
UniProt P28845, whole entry: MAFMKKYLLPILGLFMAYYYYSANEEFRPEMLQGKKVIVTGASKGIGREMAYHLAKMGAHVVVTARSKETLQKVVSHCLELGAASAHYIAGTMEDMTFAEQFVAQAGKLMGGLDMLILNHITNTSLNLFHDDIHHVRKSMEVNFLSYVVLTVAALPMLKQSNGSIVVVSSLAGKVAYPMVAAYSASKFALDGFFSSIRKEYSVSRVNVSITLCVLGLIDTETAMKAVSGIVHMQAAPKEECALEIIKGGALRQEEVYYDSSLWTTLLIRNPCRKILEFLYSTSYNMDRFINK

The compounds below were run against 11beta-HSD1 (Homo sapiens, UniProt P28845) (assay: In vitro inhibition of recombinant human 11beta-HSD1 (microsomal Scintillation Proximity Assay)). Conditions: read-out: IC50 (concentration of compound required for 50% inhibition of cortisol formation); microsomes from HEK 293 EBNA cells, 250 nM [3H]-cortisone, 500 μM NADPH, pH 6.5, room temperature.
Type: biochemical

Compared with N#Cc1c(O)nc(SCc2cccnc2F)c2c1CCCC2, N#Cc1c(O)nc(SCc2ncccc2O)c2c1CCCC2 is 240-fold higher in IC50: 1.67 nM for the first, 407 nM for the second. The first is the more potent here.

Compared with N#Cc1ncccc1CSc1nc(O)c(Cl)c2ccc(Cl)cc12, N#Cc1c(O)nc(Cc2ccccc2)c2cc(F)ccc12 is 200-fold higher in IC50: 2.02 nM for the first, 406 nM for the second. The first is the more potent here.

With N#Cc1c(O)nc(SCc2cccnc2Cl)c2cc(F)ccc12 the IC50 was 2.87 nM and 3.08 nM.

“And” between values parts separate entries of the source, which are not always exact repeats. Identical values can stand only once. The match of structure and compound is tentative.
